Values quoted from earlier work in patent EP0268927A2, “Resin-coated, non-sorptive granular, pesticidal compositions and method for the preparation thereof” (priority 1986, dated 1988).
At least one read-out could not be matched to a standard name with certainty.

Legend:
rats = conditions: technical grade
rabbits = conditions: technical grade

For CCOP(=S)(OCC)SCSCC [phorate, 0,0-diethyl-S-(ethylthiomethyl)phosphorodithioate], the “acute dermal toxicities in rats” value (rats) is given as 2.5-6.2 mg technical/kg animal and the “acute dermal toxicities on rabbits” value (rabbits) is given as 3.1-6.4 mg technical/kg animal.
